Results deposited as PubChem BioAssay AID686938 (Drosophila RNAi Screening Center, 2013).

- Aim: 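Fly genes required for calcium entry once internal stores are emptied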 (primary screen)
- System: Drosophila S2R+ cells
- Reagent: long dsRNA against Drosophila genes, about 0.25 µg dsRNA per well, roughly 10,000 cells
- Time to read-out: 5 days of knock-down before the calcium assay
- Conditions: thapsigargin (SERCA pump blocker) to empty calcium stores; entry signal taken 4 min after adding it
- Detection: 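Per-well fluo-4 fluorescence in two replicates, unnormalised, measured in resting cells and 4 min after store depletion by the SERCA blocker thapsigargin; ratio of the two present in few wells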
- Scale: calcium entry signal: higher = stronger calcium signal after store depletion; resting calcium signal: higher = higher resting calcium signal
- Units: calcium entry signal in fluorescence units; resting calcium signal in fluorescence units
- Rule for the call: 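Called when the plate z-score of the entry-to-rest ratio, mean of duplicates, falls below −3; wells with low overall dye signal (Fmax z below −2) or more than five off-targets excluded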
- Meaning of the calls: active = strongly reduced calcium entry; inactive = no strong reduction
In all, the deposit lists about 23,000 reagents; below is an unselected part of those that have a named target and a result. Of all reagents, 75 (0.33%) got an active call. 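Raw plate signals without normalisation; calls rest on plate z-scores that were not deposited; ratio present for only 364 wells.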 A plus sign joins genes that one reagent is predicted to hit. Not stated in the record: the dose of the treatment.

For CG3492 [DRSC04373], what does the deposit list?
calcium entry signal, replicate 1: 3.77e7; resting calcium signal, replicate 1: 1.96e7; call: inactive

With CG4676 [DRSC06879], how do the results read?
calcium entry signal, replicate 1: 2.94e7; calcium entry signal, replicate 2: 2.70e7; resting calcium signal, replicate 1: 1.52e7; resting calcium signal, replicate 2: 1.22e7; call: inactive

With CG3764 [DRSC10375], what does the deposit list?
calcium entry signal, replicate 1: 3.15e7; calcium entry signal, replicate 2: 4.61e7; resting calcium signal, replicate 1: 1.40e7; resting calcium signal, replicate 2: 2.87e7; call: inactive

For CG13144 [DRSC02241], what was measured?
calcium entry signal, replicate 1: 3.66e7; calcium entry signal, replicate 2: 4.40e7; resting calcium signal, replicate 1: 1.84e7; resting calcium signal, replicate 2: 1.90e7; call: inactive

What did the screen give for Pxt (Peroxinectin-like) [DRSC17040]?
calcium entry signal, replicate 1: 3.11e7; calcium entry signal, replicate 2: 3.04e7; resting calcium signal, replicate 1: 3.00e7; resting calcium signal, replicate 2: 1.37e7; call: inactive

For Prx1 (Peroxiredoxin 1) [DRSC10741], what does the deposit list?
calcium entry signal, replicate 1: 3.32e7; calcium entry signal, replicate 2: 5.02e7; resting calcium signal, replicate 1: 1.82e7; resting calcium signal, replicate 2: 1.91e7; call: inactive

What is on record for CG43326 + CG43325 [DRSC04157]?
calcium entry signal, replicate 1: 3.28e7; calcium entry signal, replicate 2: 3.86e7; resting calcium signal, replicate 1: 1.75e7; resting calcium signal, replicate 2: 1.70e7; call: inactive

How did the screen score Adgf-A (Adenosine deaminase-related growth factor A) [DRSC10566]?
calcium entry signal, replicate 1: 4.19e7; calcium entry signal, replicate 2: 4.53e7; resting calcium signal, replicate 1: 1.96e7; resting calcium signal, replicate 2: 3.12e7; call: inactive

With CG8043 [DRSC16368], how do the results read?
calcium entry signal, replicate 1: 3.47e7; calcium entry signal, replicate 2: 3.02e7; resting calcium signal, replicate 1: 1.69e7; resting calcium signal, replicate 2: 1.40e7; call: inactive

For Cp15 (Chorion protein 15) [DRSC11118], what was measured?
calcium entry signal, replicate 1: 3.37e7; calcium entry signal, replicate 2: 4.42e7; resting calcium signal, replicate 1: 1.70e7; resting calcium signal, replicate 2: 2.15e7; call: inactive

How did the screen score CG34167 [DRSC01525]?
calcium entry signal, replicate 1: 3.34e7; calcium entry signal, replicate 2: 4.49e7; resting calcium signal, replicate 1: 1.84e7; resting calcium signal, replicate 2: 2.13e7; call: inactive

How did the screen score mRpS29 (mitochondrial ribosomal protein S29) [DRSC04398]?
calcium entry signal, replicate 1: 4.47e7; resting calcium signal, replicate 1: 2.23e7; call: inactive
